{
  "source": "paper PMC6199744",
  "about": "“Development of Chemical Proteomics for the Folateome and Analysis of the Kinetoplastid Folateome” (ACS Infectious Diseases, 2018)",
  "test_system": "T. brucei lysate proteins",
  "format": "binding, Trypanosoma brucei",
  "details": "vehicle control = 1",
  "note": "Like-named read-outs stand apart in the source and are kept apart here. This continues a long series; more values of the same kind are listed elsewhere.",
  "data": [
    {"molecule": "Nc1nc2c(c(=O)[nH]1)N(C=O)C(CNc1ccc(C(=O)N[C@@H](CCC(=O)O)C(=O)O)cc1)CN2", "note": "(stereo partly drawn) [LEU, leucovorin]", "values": [
      {"measurement": "fold change", "setting": "protein TB09.211.2740 GIM5B PROTEIN", "result": 0.98},
      {"measurement": "fold change", "setting": "protein TB11.01.5320 SMALL GTPASE, PUTATIVE", "result": 0.98},
      {"measurement": "fold change", "setting": "protein TB11.46.0009 HY[…], CONSERVED", "result": 0.97},
      {"measurement": "fold change", "setting": "protein TB427TMP.01.2020 HY[…], CONSERVED", "result": 0.67},
      {"measurement": "fold change", "setting": "protein TB427TMP.01.2840 HY[…], CONSERVED", "result": 0.87},
      {"measurement": "fold change", "setting": "protein TB427TMP.01.3110 HEAT SHOCK PROTEIN 70", "result": 1.39},
      {"measurement": "fold change", "setting": "protein TB427TMP.01.4810 HY[…], CONSERVED", "result": 0.89},
      {"measurement": "fold change", "setting": "protein TB427TMP.01.6300 PHOSPHATIDYLINOSITOL 3-RELATED KINASE, PUTATIVE", "result": 0.9},
      {"measurement": "fold change", "setting": "protein TB427TMP.01.8510 T-COMPLEX PROTEIN 1, ALPHA SUBUNIT, PUTATIVE", "result": 1.21},
      {"measurement": "fold change", "setting": "protein TB427TMP.02.0230 HY[…], CONSERVED", "result": 0.78},
      {"measurement": "fold change", "setting": "protein TB427TMP.02.0350 HY[…], CONSERVED", "result": 0.95},
      {"measurement": "fold change", "setting": "protein TB427TMP.02.0980 HY[…], CONSERVED", "result": 0.82},
      {"measurement": "fold change", "setting": "protein TB427TMP.02.1120 ADENYL[…], PUTATIVE", "result": 1.72},
      {"measurement": "fold change", "setting": "protein TB427TMP.02.2410 CLATHRIN COAT ASSEMBLY PROTEIN, PUTATIVE", "result": 0.79},
      {"measurement": "fold change", "setting": "protein TB427TMP.02.5280 GLYCEROL-3-PHOSPHATE DEHYDROGENASE (FAD-DEPENDENT), MITOCHONDRIAL", "result": 1.38},
      {"measurement": "fold change", "setting": "protein TB427TMP.160.2220 HY[…], CONSERVED", "result": 0.81},
      {"measurement": "fold change", "setting": "protein TB427TMP.160.3590 CAMP-SPECIFIC PHOSPHODIESTERASE", "result": 1.64},
      {"measurement": "fold change", "setting": "protein TB427TMP.160.4240 […] PROTEIN-LIKE PROTEIN", "result": 1.34},
      {"measurement": "fold change", "setting": "protein TB427TMP.160.4760 HY[…]", "result": 0.87},
      {"measurement": "fold change", "setting": "protein TB427TMP.160.5200 HY[…], CONSERVED", "result": 0.87},
      {"measurement": "fold change", "setting": "protein TB427TMP.211.3310 R[…] C, SUBUNIT 3, PUTATIVE", "result": 0.98},
      {"measurement": "fold change", "setting": "protein TB427TMP.V1.0370 HY[…], CONSERVED", "result": 0.91},
      {"measurement": "fold change", "setting": "protein TB427.01.720 PHOSPH[…]", "result": 1.44},
      {"measurement": "fold change", "setting": "protein TB427.02.4130 ENOYL-COA HYDRATASE/ENOYL-COA ISOMERASE/3-HYDROXYACYL-COA DEHYDROGENASE, PUTATIVE", "result": 0.85},
      {"measurement": "fold change", "setting": "protein TB427.02.5820 HY[…], CONSERVED", "result": 0.81},
      {"measurement": "fold change", "setting": "protein TB427.02.5850 SMALL NUCLEAR RIBONUCLEOPROTEIN SMD2", "result": 1.33},
      {"measurement": "fold change", "setting": "protein TB427.03.4190 ENDOSOMAL INTEGRAL MEMBRANE PROTEIN, PUTATIVE", "result": 0.9},
      {"measurement": "fold change", "setting": "protein TB427.03.4600 HY[…], CONSERVED", "result": 1.33},
      {"measurement": "fold change", "setting": "protein TB427.04.1540 HY[…], CONSERVED", "result": 1.26},
      {"measurement": "fold change", "setting": "protein TB427.04.1970 HY[…], CONSERVED", "result": 0.9},
      {"measurement": "fold change", "setting": "protein TB427.04.3740 FLAGELLAR […] PROTEIN", "result": 0.63},
      {"measurement": "fold change", "setting": "protein TB427.04.4860 AMINO ACID TRANSPORTER 8, PUTATIVE", "result": 0.86},
      {"measurement": "fold change", "setting": "protein TB427.04.560 DYNEIN HEAVY CHAIN, PUTATIVE", "result": 0.73},
      {"measurement": "fold change", "setting": "protein TB427.04.960 HY[…], CONSERVED", "result": 0.88},
      {"measurement": "fold change", "setting": "protein TB427.05.1490 HY[…], CONSERVED", "result": 0.73},
      {"measurement": "fold change", "setting": "protein TB427.05.3800 GLUTAMINE HYDROLYSING (NOT AMMONIA-DEPENDENT) […] PHOSPHATE SYNTHASE, PUTATIVE", "result": 0.81},
      {"measurement": "fold change", "setting": "protein TB427.05.4460 MAJOR VAULT PROTEIN, PUTATIVE", "result": 0.97},
      {"measurement": "fold change", "setting": "protein TB427.05.520 STOMATIN-LIKE PROTEIN, PUTATIVE", "result": 1},
      {"measurement": "fold change", "setting": "protein TB427.05.550 VACUOLAR ATP SYNTHASE, PUTATIVE", "result": 1.4},
      {"measurement": "fold change", "setting": "protein TB427.06.1800 PROTEIN PHOSPHATASE 2C, PUTATIVE", "result": 1.48},
      {"measurement": "fold change", "setting": "protein TB427.06.2010 HY[…], CONSERVED", "result": 1.4},
      {"measurement": "fold change", "setting": "protein TB427.06.2250 RAC SERINE-THREONINE KINASE, PUTATIVE", "result": 1.23},
      {"measurement": "fold change", "setting": "protein TB427.06.3280 […] SUBUNIT 1, PUTATIVE", "result": 0.74},
      {"measurement": "fold change", "setting": "protein TB427.06.4890 S-ADENOSYL[…], PUTATIVE", "result": 1.25},
      {"measurement": "fold change", "setting": "protein TB427.07.3370 HY[…], CONSERVED", "result": 1.18},
      {"measurement": "fold change", "setting": "protein TB427.07.4570 INOSINE-GUANINE […]", "result": 1.28},
      {"measurement": "fold change", "setting": "protein TB427.07.5750 HY[…], CONSERVED", "result": 1.6},
      {"measurement": "fold change", "setting": "protein TB427.08.1840 HY[…], CONSERVED", "result": 0.66},
      {"measurement": "fold change", "setting": "protein TB427.08.1950 HY[…], CONSERVED", "result": 1.2},
      {"measurement": "fold change", "setting": "protein TB427.10.1170 INTR[…] PROTEIN IFT172, PUTATIVE", "result": 0.8},
      {"measurement": "fold change", "setting": "protein TB427.10.13280 HY[…], CONSERVED", "result": 0.94},
      {"measurement": "fold change", "setting": "protein TB427.10.1510 NOT1", "result": 0.93},
      {"measurement": "fold change", "setting": "protein TB427.10.15360 HY[…], CONSERVED", "result": 0.86},
      {"measurement": "fold change", "setting": "protein TB427.10.2900 IMPORTIN BETA-1 SUBUNIT, PUTATIVE", "result": 0.91},
      {"measurement": "fold change", "setting": "protein TB427.10.3260 LONG-CHAIN-FATTY-ACID--COA LIGASE 5, PUTATIVE", "result": 1.18},
      {"measurement": "fold change", "setting": "protein TB427.10.4110 60S RIBOSOMAL PROTEIN L30", "result": 1.25},
      {"measurement": "fold change", "setting": "protein TB427.10.4600 HY[…], CONSERVED", "result": 1.2},
      {"measurement": "fold change", "setting": "protein TB427.10.5250 HY[…], CONSERVED", "result": 0.84},
      {"measurement": "fold change", "setting": "protein TB427.10.6940 DIPEPTIDYL-PEPTIDASE 8-LIKE, PUTATIVE", "result": 1.25},
      {"measurement": "fold change", "setting": "protein TB427.10.7230 HY[…], CONSERVED", "result": 0.76},
      {"measurement": "fold change", "setting": "protein TB427.10.7550 HY[…], CONSERVED", "result": 0.9},
      {"measurement": "fold change", "setting": "protein TB427.10.8420 TARGET OF RAPAMYCIN (TOR) KINASE 1", "result": 0.74},
      {"measurement": "fold change", "setting": "protein TB427.10.9800 60S RIBOSOMAL PROTEIN L22", "result": 0.91},
      {"measurement": "fold change", "setting": "protein TB927.10.12330 HY[…], CONSERVED", "result": 0.89},
      {"measurement": "fold change", "setting": "protein TB927.10.12940 HY[…], CONSERVED", "result": 0.96},
      {"measurement": "fold change", "setting": "protein TB927.10.14170 AQUAPORIN 9, PUTATIVE", "result": 0.99},
      {"measurement": "fold change", "setting": "protein TB927.10.5330 40S RIBOSOMAL PROTEIN S18, PUTATIVE", "result": 0.92},
      {"measurement": "fold change", "setting": "protein TB927.10.6510 CHAPERONIN HSP60, MIT[…]", "result": 1.57},
      {"measurement": "fold change", "setting": "protein TB927.10.7090 A[…]", "result": 1.36},
      {"measurement": "fold change", "setting": "protein TB927.2.4930 ESTERASE, PUTATIVE", "result": 0.94},
      {"measurement": "fold change", "setting": "protein TB927.2.6320 ADENOSINE TRANSPORTER 2", "result": 1.1},
      {"measurement": "fold change", "setting": "protein TB927.3.1380 ATP SYNTHASE BETA CHAIN, MIT[…]", "result": 0.81},
      {"measurement": "fold change", "setting": "protein TB927.3.4360 40S RIBOSOMAL PROTEIN S15A, PUTATIVE", "result": 0.9},
      {"measurement": "fold change", "setting": "protein TB927.3.5490 FLAGELLAR TRANSPORT PROTEIN, PUTATIVE", "result": 0.94},
      {"measurement": "fold change", "setting": "protein TB927.3.910 GAMMA-TUBULIN", "result": 1.26},
      {"measurement": "fold change", "setting": "protein TB927.5.1930 HY[…], CONSERVED", "result": 0.94},
      {"measurement": "fold change", "setting": "protein TB927.6.2210 HY[…], CONSERVED", "result": 0.75},
      {"measurement": "fold change", "setting": "protein TB927.7.2140 HY[…]", "result": 0.96},
      {"measurement": "fold change", "setting": "protein TB927.7.2500 […] SUBUNIT 1", "result": 1.1},
      {"measurement": "fold change", "setting": "protein TB927.7.2700 NADH-CYTOCHROME B5 REDUCTASE, PUTATIVE", "result": 1},
      {"measurement": "fold change", "setting": "protein TB927.7.2980 HY[…], CONSERVED", "result": 0.86},
      {"measurement": "fold change", "setting": "protein TB927.7.5340 HY[…], CONSERVED", "result": 0.67},
      {"measurement": "fold change", "setting": "protein TB927.7.7040 METHYLTHIOADENOSINE PHOSPHORYLASE, PUTATIVE", "result": 0.76},
      {"measurement": "fold change", "setting": "protein TB927.7.710 HEAT SHOCK 70 KDA PROTEIN, PUTATIVE", "result": 1.39}
    ]}
  ]
}
